The test concerns the target T1, KCTD10 (potassium channel tetramerisation domain-containing 10), Flag-tagged, stably overexpressed in A549 cells (UniProt Q9H3F6).
T1 sequence: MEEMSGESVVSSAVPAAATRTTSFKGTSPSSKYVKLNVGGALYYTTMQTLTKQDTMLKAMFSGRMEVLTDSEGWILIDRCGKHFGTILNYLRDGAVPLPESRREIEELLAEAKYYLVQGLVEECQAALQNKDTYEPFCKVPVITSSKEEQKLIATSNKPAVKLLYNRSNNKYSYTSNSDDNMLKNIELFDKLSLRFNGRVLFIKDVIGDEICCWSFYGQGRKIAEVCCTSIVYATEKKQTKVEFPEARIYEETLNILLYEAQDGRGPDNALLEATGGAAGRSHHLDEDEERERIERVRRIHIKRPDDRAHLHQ
As to the kind of experiment: affinity purification with mass spectrometry; immunoprecipitation with anti-Flag-tag antibody or IgG from KCTD10-overexpressing A549 cells; 10% SDS-PAGE, silver stain, mass spectrometry of differential bands.

Protein sequences, listed by entry. Tags and fused reporters are not part of them.
UniProt P35222: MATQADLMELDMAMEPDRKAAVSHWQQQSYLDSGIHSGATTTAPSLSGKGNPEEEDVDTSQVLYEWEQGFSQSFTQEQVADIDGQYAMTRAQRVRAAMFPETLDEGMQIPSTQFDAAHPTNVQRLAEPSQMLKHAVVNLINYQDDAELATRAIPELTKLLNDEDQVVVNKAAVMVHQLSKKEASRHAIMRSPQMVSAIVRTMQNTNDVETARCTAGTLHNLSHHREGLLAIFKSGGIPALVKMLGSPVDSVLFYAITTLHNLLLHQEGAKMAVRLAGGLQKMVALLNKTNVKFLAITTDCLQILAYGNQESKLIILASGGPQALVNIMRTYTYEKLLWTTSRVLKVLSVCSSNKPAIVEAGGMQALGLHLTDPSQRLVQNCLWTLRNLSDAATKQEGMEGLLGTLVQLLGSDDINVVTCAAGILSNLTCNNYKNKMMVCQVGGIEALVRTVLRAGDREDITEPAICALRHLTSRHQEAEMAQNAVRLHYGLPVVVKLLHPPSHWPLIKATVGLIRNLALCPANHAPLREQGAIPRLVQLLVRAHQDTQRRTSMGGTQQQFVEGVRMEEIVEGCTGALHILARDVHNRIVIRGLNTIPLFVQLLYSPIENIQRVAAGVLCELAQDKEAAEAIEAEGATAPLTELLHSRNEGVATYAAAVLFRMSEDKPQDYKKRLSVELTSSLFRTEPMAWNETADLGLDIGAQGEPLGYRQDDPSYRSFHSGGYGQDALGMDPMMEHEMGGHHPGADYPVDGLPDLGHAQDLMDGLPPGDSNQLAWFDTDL

These are yes or no findings as the source states them, for the method shown. In cells and extracts the contact can be indirect. These calls come from enrichment with a bait or labelling near it, and not all partners need be listed. Sequences can lack the tags named with a protein.

Consider “β-catenin (cadherin-associated protein, beta 1), endogenous (from UniProt P35222 1-781)”, for which the binding entry is listed as “binds”.

These data come from publication PMC12378768.
